Where “and” joins values, the source holds several entries; their conditions need not be identical. Equal values may be shown once. This continues a long series; more values of the same kind are listed elsewhere.
Test system: RPE1 cells
Assay: Cell growth assay (IncuCyte confluence over 72 h)
Format: cell-based
Experimental: Cell growth assay: Cell confluence (phase) from RPE1 (hTERT RPE-1, ATCC CLR_4000) or U2OS (ATCC, HTB-96) cell lines were monitored over time with the IncuCyte S3 (Sartiorius, Germany) in 384-well plates in 50 ul DMEM media, supplemented with 10% Fetal Bovine Serum (FBS) 1% penicillin/Streptomycin and incubated 24 h before treatment. Experiment was performed as described in Cano-Franco et al.. 50 μl of media containing either 2× final concentration of indicated compounds in or control compounds (final conc.: 0.1% DMSO, 250 nM Torin1, 200 ng/mL Bafilomycin) were added and images were taken every two hours over 72 h. Cell confluence is represented as % of area covered by cells. Each data point represents the average ratio or confluence obtained from three individual wells of the plate.

`O=C1Nc2ccc(Br)cc2C1=Cc1cc(O)c(O)c(Br)c1` [compound 1] was tested, and the RPE1 cell growth (3 uM, 2 h, listed as AN1) was 29 and 27 and 22, the RPE1 cell growth (3 uM, 4 h, listed as AN1) was 34 and 28 and 24 and the RPE1 cell growth (3 uM, 6 h, listed as AN1) was 37 and 28 and 26. For the same compound, the RPE1 cell growth (3 uM, 8 h, listed as AN1) was 40 and 31 and 28, the RPE1 cell growth (3 uM, 22 h, listed as AN1) was 55 and 46 and 38 and the RPE1 cell growth (3 uM, 24 h, listed as AN1) was 58 and 47 and 40. The RPE1 cell growth (3 uM, 26 h, listed as AN1) was 59 and 48 and 43, the RPE1 cell growth (3 uM, 28 h, listed as AN1) was 63 and 48 and 42 and the RPE1 cell growth (3 uM, 30 h, listed as AN1) was 66 and 49 and 45. For the same compound, the RPE1 cell growth (3 uM, 32 h, listed as AN1) was 68 and 50 and 49, the RPE1 cell growth (3 uM, 34 h, listed as AN1) was 69 and 50 and 52 and the RPE1 cell growth (3 uM, 36 h, listed as AN1) was 73 and 53 and 54. The RPE1 cell growth (3 uM, 38 h, listed as AN1) was 77 and 54 and 56, the RPE1 cell growth (3 uM, 40 h, listed as AN1) was 81 and 56 and 59 and the RPE1 cell growth (3 uM, 42 h, listed as AN1) was 84 and 57 and 63. For the same compound, the RPE1 cell growth (3 uM, 44 h, listed as AN1) was 87 and 62 and 64, the RPE1 cell growth (3 uM, 46 h, listed as AN1) was 89 and 64 and 66 and the RPE1 cell growth (3 uM, 48 h, listed as AN1) was 90 and 69 and 71. The RPE1 cell growth (3 uM, 50 h, listed as AN1) was 93 and 71 and 74, the RPE1 cell growth (3 uM, 52 h, listed as AN1) was 94 and 75 and 77 and the RPE1 cell growth (3 uM, 54 h, listed as AN1) was 96 and 78 and 81. For the same compound, the RPE1 cell growth (3 uM, 56 h, listed as AN1) was 97 and 81 and 85, the RPE1 cell growth (3 uM, 58 h, listed as AN1) was 98 and 85 and 88 and the RPE1 cell growth (3 uM, 60 h, listed as AN1) was 98 and 88 and 91. For the same compound, the RPE1 cell growth (3 uM, 62 h, listed as AN1) was 99 and 90 and 92, the RPE1 cell growth (3 uM, 64 h, listed as AN1) was 99 and 92 and 95 and the RPE1 cell growth (3 uM, 66 h, listed as AN1) was 99 and 95 and 96. The RPE1 cell growth (3 uM, 68 h, listed as AN1) was 99 and 95 and 98, the RPE1 cell growth (3 uM, 70 h, listed as AN1) was 99 and 97 and the RPE1 cell growth (3 uM, 72 h, listed as AN1) was 100 and 97 and 99. The RPE1 cell growth (3 uM, time 20 h, listed as AN1) was 48 and 33 and 44, the RPE1 cell growth (3 uM, time 22 h, listed as AN1) was 54 and 36 and 46 and the RPE1 cell growth (3 uM, time 24 h, listed as AN1) was 61 and 39 and 48. The RPE1 cell growth (3 uM, time 26 h, listed as AN1) was 64 and 40 and 51, the RPE1 cell growth (3 uM, time 28 h, listed as AN1) was 68 and 44 and 54 and the RPE1 cell growth (3 uM, time 30 h, listed as AN1) was 73 and 49 and 57. The RPE1 cell growth (3 uM, time 32 h, listed as AN1) was 77 and 53 and 63, the RPE1 cell growth (3 uM, time 34 h, listed as AN1) was 79 and 56 and 67 and the RPE1 cell growth (3 uM, time 36 h, listed as AN1) was 83 and 59 and 70. The RPE1 cell growth (3 uM, time 38 h, listed as AN1) was 87 and 65 and 74, the RPE1 cell growth (3 uM, time 40 h, listed as AN1) was 91 and 68 and 78 and the RPE1 cell growth (3 uM, time 42 h, listed as AN1) was 93 and 71 and 82. The RPE1 cell growth (3 uM, time 44 h, listed as AN1) was 96 and 76 and 87, the RPE1 cell growth (3 uM, time 46 h, listed as AN1) was 97 and 81 and 90 and the RPE1 cell growth (3 uM, time 48 h, listed as AN1) was 99 and 86 and 93. For the same compound, the RPE1 cell growth (3 uM, time 50 h, listed as AN1) was 99 and 89 and 95, the RPE1 cell growth (3 uM, time 52 h, listed as AN1) was 99 and 93 and 97 and the RPE1 cell growth (3 uM, time 54 h, listed as AN1) was 100 and 96 and 98. The RPE1 cell growth (3 uM, time 56 h, listed as AN1) was 100 and 98 and 99, the RPE1 cell growth (3 uM, time 58 h, listed as AN1) was 100 and 99 and the RPE1 cell growth (3 uM, time 60 h) was 100. For the same compound, the RPE1 cell growth (3 uM, time 62 h) was 100, the RPE1 cell growth (3 uM, time 64 h) was 100 and the RPE1 cell growth (3 uM, time 66 h) was 100. The RPE1 cell growth (3 uM, time 68 h) was 100, the RPE1 cell growth (3 uM, time 70 h) was 100 and the RPE1 cell growth (3 uM, time 72 h) was 100. For the same compound, the RPE1 cell growth (5 uM, 0 h, listed as AN1) was 28 and 25 and 22, the RPE1 cell growth (5 uM, 2 h, listed as AN1) was 34 and 28 and 26 and the RPE1 cell growth (5 uM, 4 h, listed as AN1) was 38 and 28 and 29. The RPE1 cell growth (5 uM, 6 h, listed as AN1) was 41 and 30 and 31, the RPE1 cell growth (5 uM, 8 h, listed as AN1) was 45 and 33 and 32 and the RPE1 cell growth (5 uM, 22 h, listed as AN1) was 58 and 48 and 49. For the same compound, the RPE1 cell growth (5 uM, 24 h, listed as AN1) was 61 and 48 and 50, the RPE1 cell growth (5 uM, 26 h, listed as AN1) was 63 and 49 and 51 and the RPE1 cell growth (5 uM, 28 h, listed as AN1) was 65 and 52 and 51. The RPE1 cell growth (5 uM, 30 h, listed as AN1) was 68 and 53 and 54, the RPE1 cell growth (5 uM, 32 h, listed as AN1) was 69 and 54 and 55 and the RPE1 cell growth (5 uM, 34 h, listed as AN1) was 72 and 53 and 56. For the same compound, the RPE1 cell growth (5 uM, 36 h, listed as AN1) was 73 and 55 and 57, the RPE1 cell growth (5 uM, 38 h, listed as AN1) was 75 and 56 and 57 and the RPE1 cell growth (5 uM, 40 h, listed as AN1) was 78 and 58 and 59. The RPE1 cell growth (5 uM, 42 h, listed as AN1) was 79 and 57 and 60, the RPE1 cell growth (5 uM, 44 h, listed as AN1) was 81 and 57 and 60 and the RPE1 cell growth (5 uM, 46 h, listed as AN1) was 83 and 58 and 62. The RPE1 cell growth (5 uM, 48 h, listed as AN1) was 85 and 58 and 63, the RPE1 cell growth (5 uM, 50 h, listed as AN1) was 87 and 57 and 63 and the RPE1 cell growth (5 uM, 52 h, listed as AN1) was 88 and 60 and 65. For the same compound, the RPE1 cell growth (5 uM, 54 h, listed as AN1) was 88 and 59 and 68, the RPE1 cell growth (5 uM, 56 h, listed as AN1) was 90 and 59 and 68 and the RPE1 cell growth (5 uM, 58 h, listed as AN1) was 91 and 58 and 69. For the same compound, the RPE1 cell growth (5 uM, 60 h, listed as AN1) was 92 and 61 and 72, the RPE1 cell growth (5 uM, 62 h, listed as AN1) was 92 and 59 and 73 and the RPE1 cell growth (5 uM, 64 h, listed as AN1) was 93 and 60 and 78. For the same compound, the RPE1 cell growth (5 uM, 66 h, listed as AN1) was 93 and 60 and 79 and the RPE1 cell growth (5 uM, 68 h, listed as AN1) was 94 and 59 and 82.

Reference: PMC11589570, “Critical assessment of LC3/GABARAP ligands used for degrader development and ligandability of LC3/GABARAP binding pockets” (Nature Communications, 2024)
